Values from PubChem BioAssay AID1259405 (NCATS, 2018).
Test: 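Mouse-designed siRNAs used to find CHO productivity engineering targets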 (primary screen). Cells: Chinese hamster CHO-K1 ovary cells with stable secreted eGFP expression. Reagents: single siRNA against mouse genes, 0.8 pmol siRNA per well (2 µl of 400 nM stock). Duration: 3 days. Measurement: 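Per-well intracellular GFP measured by laser scanning cytometry, plus viability from ATP luminescence, each relative to plate median of non-targeting control wells, in %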. Scale: GFP, % of control: higher = more GFP per well, higher productivity. Active means: 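a knock-down is called active if GFP reaches 120% or more of non-targeting control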.
The whole screen tested about 50,000 reagents; shown is a random part of them. About 4,000 of all reagents (8%) count as active. 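Mouse siRNA library applied to hamster cells; one well for each siRNA.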 The numbers tell different reagents against one gene apart. Further read-outs or replicates are left out here.

GFP, % of control, by gene symbol and reagent
Or4f15: #1 83.4 inactive; #2 38.8 inactive; #3 26.4 inactive
Scfd2: #1 111 inactive; #2 78.4 inactive; #3 77.2 inactive
Tm6sf2: #1 39 inactive; #2 95.3 inactive; #3 112 inactive
Adgre5: #1 70.3 inactive; #2 43.9 inactive; #3 74 inactive
Poglut3: #1 48.9 inactive; #2 30.1 inactive; #3 113 inactive
Clec2g: #1 81.3 inactive; #2 63.1 inactive; #3 70.8 inactive
Pou4f2: #1 78 inactive; #2 72.3 inactive; #3 66.3 inactive
Cldn2: #1 73.3 inactive; #2 85.3 inactive; #3 52.9 inactive
Fus: #1 63.4 inactive; #2 62.7 inactive; #3 64.4 inactive
Phf8: #1 57.4 inactive; #2 58.5 inactive; #3 69.9 inactive
Ghitm: #1 64.2 inactive; #2 89.1 inactive; #3 72.4 inactive
Trim60: #1 83.3 inactive; #2 115 inactive; #3 86.9 inactive
Xkr6: #1 58.3 inactive; #2 68.1 inactive; #3 170 active
Hdhd2: #1 64 inactive; #2 81.5 inactive; #3 46.3 inactive
Erap1: #1 115 inactive; #2 70.9 inactive; #3 74.9 inactive
Stag1: #1 101 inactive; #2 100 inactive; #3 91.5 inactive
Egfl6: #1 73.1 inactive; #2 85.7 inactive; #3 45.3 inactive
Vmn1r84: #1 49.6 inactive; #2 72.7 inactive; #3 42.9 inactive
Tmod4: #1 88 inactive; #2 68 inactive; #3 35.8 inactive

Individual results from above.
For “GFP, % of control”, Trim60 #2 is entered as 115
Under “GFP, % of control”, Fus #2 has 62.7
Entry of Poglut3 #1 under “GFP, % of control”: 48.9
